Laboratory results: article PMC7917804
Where a chain is given by its changes, count along the chain named. No constants are given. Whether binding was seen depends on the method and setting. In cells and extracts the contact can be indirect. Some results given as binding are weak or reduced against the parent protein; the word gives no strength.

Sequences of proteins named here, by UniProt entry; tags and fusion partners are left off.
UniProt A5YKK6: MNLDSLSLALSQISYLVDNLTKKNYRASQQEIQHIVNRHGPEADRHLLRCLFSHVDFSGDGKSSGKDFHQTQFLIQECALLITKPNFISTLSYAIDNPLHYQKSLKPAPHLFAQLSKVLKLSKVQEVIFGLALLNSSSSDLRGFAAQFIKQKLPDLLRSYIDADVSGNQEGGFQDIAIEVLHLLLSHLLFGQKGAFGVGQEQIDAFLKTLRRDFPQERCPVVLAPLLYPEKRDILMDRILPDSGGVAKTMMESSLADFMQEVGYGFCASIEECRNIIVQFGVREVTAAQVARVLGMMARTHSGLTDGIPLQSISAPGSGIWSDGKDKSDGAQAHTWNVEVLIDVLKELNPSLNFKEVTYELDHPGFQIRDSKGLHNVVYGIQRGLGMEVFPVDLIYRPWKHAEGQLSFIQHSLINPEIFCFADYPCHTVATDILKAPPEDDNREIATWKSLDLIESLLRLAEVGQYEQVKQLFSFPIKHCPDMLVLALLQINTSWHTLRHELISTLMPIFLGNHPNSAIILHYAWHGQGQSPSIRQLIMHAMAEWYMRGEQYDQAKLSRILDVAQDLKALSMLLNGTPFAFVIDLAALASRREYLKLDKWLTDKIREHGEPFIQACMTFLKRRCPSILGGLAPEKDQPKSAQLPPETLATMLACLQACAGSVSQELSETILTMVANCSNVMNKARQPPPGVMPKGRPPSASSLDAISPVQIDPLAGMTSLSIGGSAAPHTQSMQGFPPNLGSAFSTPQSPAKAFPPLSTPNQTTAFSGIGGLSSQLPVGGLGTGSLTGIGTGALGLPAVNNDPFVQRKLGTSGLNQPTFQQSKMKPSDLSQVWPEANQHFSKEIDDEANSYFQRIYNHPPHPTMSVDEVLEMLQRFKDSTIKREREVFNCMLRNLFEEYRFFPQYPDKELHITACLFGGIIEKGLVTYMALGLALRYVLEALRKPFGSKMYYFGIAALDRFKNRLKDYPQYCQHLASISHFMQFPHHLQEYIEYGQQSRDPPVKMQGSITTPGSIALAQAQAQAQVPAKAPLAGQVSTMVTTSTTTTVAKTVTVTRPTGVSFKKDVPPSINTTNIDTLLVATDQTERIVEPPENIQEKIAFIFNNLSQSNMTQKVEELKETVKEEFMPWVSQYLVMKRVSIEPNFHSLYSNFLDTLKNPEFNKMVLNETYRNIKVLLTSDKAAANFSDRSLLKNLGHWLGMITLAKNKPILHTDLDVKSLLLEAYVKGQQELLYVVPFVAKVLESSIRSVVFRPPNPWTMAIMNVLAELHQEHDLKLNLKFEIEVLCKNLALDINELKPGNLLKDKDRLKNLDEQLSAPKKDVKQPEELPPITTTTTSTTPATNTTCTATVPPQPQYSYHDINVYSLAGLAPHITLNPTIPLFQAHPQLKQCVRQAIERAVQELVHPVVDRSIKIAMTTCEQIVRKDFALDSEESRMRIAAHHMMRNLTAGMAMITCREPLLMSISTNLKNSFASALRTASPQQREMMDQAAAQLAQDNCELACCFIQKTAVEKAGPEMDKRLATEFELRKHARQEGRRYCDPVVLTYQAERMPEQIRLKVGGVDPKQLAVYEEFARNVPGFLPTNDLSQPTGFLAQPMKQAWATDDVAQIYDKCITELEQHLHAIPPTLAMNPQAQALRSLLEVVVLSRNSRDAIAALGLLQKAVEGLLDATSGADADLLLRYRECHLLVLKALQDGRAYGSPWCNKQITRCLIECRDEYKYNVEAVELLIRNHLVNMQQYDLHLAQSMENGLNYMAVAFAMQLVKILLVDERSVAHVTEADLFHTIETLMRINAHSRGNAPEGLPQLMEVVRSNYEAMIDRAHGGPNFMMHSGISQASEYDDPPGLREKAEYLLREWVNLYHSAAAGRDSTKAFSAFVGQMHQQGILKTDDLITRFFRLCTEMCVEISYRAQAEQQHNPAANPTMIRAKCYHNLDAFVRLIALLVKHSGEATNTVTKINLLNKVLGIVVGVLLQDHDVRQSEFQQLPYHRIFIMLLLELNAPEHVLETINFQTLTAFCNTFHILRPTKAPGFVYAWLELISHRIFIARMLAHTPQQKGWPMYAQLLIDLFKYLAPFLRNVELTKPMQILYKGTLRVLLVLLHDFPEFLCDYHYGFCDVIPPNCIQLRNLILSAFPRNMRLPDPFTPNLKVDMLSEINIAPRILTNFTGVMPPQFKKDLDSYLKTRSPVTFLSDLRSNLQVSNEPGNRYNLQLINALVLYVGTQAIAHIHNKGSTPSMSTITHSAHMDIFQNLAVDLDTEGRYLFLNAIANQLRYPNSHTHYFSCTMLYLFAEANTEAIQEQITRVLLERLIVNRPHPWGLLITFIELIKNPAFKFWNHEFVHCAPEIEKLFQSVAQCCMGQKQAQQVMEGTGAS
UniProt Q92600: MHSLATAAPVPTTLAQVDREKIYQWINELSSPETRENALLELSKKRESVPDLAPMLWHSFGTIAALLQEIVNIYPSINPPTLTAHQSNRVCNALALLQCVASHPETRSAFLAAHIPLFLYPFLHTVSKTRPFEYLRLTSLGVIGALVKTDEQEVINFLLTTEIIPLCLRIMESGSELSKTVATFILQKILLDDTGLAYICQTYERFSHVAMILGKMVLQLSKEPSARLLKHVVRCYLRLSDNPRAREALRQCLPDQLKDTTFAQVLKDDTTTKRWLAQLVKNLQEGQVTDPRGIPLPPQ

Assays:
Assay in all cases: co-IP; lysates of HeLa cells expressing FHS-tagged TNRC6A-SD fragments (collected 24 h after transfection) or full-length TNRC6A (36 h), anti-FLAG antibody beads 2 h at 4 °C, lysis buffer with 140 mM NaCl, wash buffer with 300 mM NaCl and 0.5% NP40; endogenous CNOT1, CNOT9 and PABP detected by Western …
[1] = molecular target: FHS-FL-TNRC6A-S1332A/S1346A (human) (UniProt Q8NDV7)
[2] = molecular target: FHS-FL-TNRC6A-S1332D/S1346D (human) (UniProt Q8NDV7)
[3] = molecular target: T1, FHS-TNRC6A-SD-S1332A/S1346A (human) (UniProt Q8NDV7)
T1 sequence: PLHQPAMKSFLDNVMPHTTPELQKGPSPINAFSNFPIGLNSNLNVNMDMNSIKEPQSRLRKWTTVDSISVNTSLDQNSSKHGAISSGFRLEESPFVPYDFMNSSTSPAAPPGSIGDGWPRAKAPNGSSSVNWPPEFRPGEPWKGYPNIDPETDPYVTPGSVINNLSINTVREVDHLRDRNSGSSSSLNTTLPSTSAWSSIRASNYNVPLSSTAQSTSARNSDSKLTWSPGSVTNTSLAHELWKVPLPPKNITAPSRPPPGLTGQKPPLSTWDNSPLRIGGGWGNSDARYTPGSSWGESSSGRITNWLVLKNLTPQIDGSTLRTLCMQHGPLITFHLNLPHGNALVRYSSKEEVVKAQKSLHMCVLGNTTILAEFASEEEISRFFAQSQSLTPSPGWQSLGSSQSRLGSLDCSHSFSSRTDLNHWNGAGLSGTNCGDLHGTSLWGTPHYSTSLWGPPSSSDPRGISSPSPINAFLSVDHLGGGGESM

[4] = molecular target: T2, FHS-TNRC6A-SD-S1332D/S1346D (human) (UniProt Q8NDV7)
T2 sequence: T1 sequence with A109D, A123D

[5] = molecular target: T3, FHS-TNRC6A-SD-S1616A/S1691A (human) (UniProt Q8NDV7)
T3 sequence: T1 sequence with A109S, A123S, S393A, S468A

Measured: binding

CNOT1 (from UniProt A5YKK6 1-2376)
binds: all assays above

CNOT9 (from UniProt Q92600 1-299)
binds: all assays above
